{"source": "PubChem BioAssay AID1259254 – NCATS, 2017", "screen": "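Genome-wide screen for genes that prevent DNA re-replication in cancer cells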 (primary screen)", "system": "human HCT116 colorectal cancer cells", "reagent": "single siRNA against human genes", "time to read-out": "3 days", "read-out": "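Nuclei stained with Hoechst and imaged; cell-cycle phase assigned by DNA content; G2 share scaled per plate, non-targeting siRNA 0%, GMNN siRNA 100%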", "direction": "G2 robust z-score and G2 cells, % of GMNN control: higher = more G2 cells, more excess DNA replication", "hit rule": "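Active siRNAs have a G2 robust z of 5 or more median absolute deviations over the median, which in these data means about 38% or higher of GMNN control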", "note": "The whole screen tested about 59,000 reagents; this is an unselected part. In the full data, about 1,550 (2.6%) were called active. 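G2 share is only a proxy for re-replication; each gene was hit by three separate siRNAs, and active genes were retested.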 Reagents against one gene are numbered here. Not all columns of the deposit are shown. Reagent sequences are not shown. Not given: the amount of reagent."}
{"gene knocked down": "TRIM45", "reagent no.": 1, "G2 robust z-score": -0.311, "G2 cells, % of GMNN control": 0.782, "activity call": "inactive"}
{"gene knocked down": "TRIM45", "reagent no.": 2, "G2 robust z-score": -0.843, "G2 cells, % of GMNN control": -2.96, "activity call": "inactive"}
{"gene knocked down": "TRIM45", "reagent no.": 3, "G2 robust z-score": 1.12, "G2 cells, % of GMNN control": 10.8, "activity call": "inactive"}
{"gene knocked down": "IDO2", "reagent no.": 1, "G2 robust z-score": 0.827, "G2 cells, % of GMNN control": 8.79, "activity call": "inactive"}
{"gene knocked down": "IDO2", "reagent no.": 2, "G2 robust z-score": -0.571, "G2 cells, % of GMNN control": -1.05, "activity call": "inactive"}
{"gene knocked down": "IDO2", "reagent no.": 3, "G2 robust z-score": -0.399, "G2 cells, % of GMNN control": 0.157, "activity call": "inactive"}
{"gene knocked down": "MRPL22", "reagent no.": 1, "G2 robust z-score": -0.905, "G2 cells, % of GMNN control": -3.4, "activity call": "inactive"}
{"gene knocked down": "MRPL22", "reagent no.": 2, "G2 robust z-score": -0.282, "G2 cells, % of GMNN control": 0.984, "activity call": "inactive"}
{"gene knocked down": "MRPL22", "reagent no.": 3, "G2 robust z-score": -0.673, "G2 cells, % of GMNN control": -1.77, "activity call": "inactive"}
{"gene knocked down": "TGM2", "reagent no.": 1, "G2 robust z-score": 0.694, "G2 cells, % of GMNN control": 7.85, "activity call": "inactive"}
{"gene knocked down": "TGM2", "reagent no.": 2, "G2 robust z-score": -0.752, "G2 cells, % of GMNN control": -2.32, "activity call": "inactive"}
{"gene knocked down": "TGM2", "reagent no.": 3, "G2 robust z-score": -1.41, "G2 cells, % of GMNN control": -6.94, "activity call": "inactive"}
{"gene knocked down": "LLGL1", "reagent no.": 1, "G2 robust z-score": -0.888, "G2 cells, % of GMNN control": -3.28, "activity call": "inactive"}
{"gene knocked down": "LLGL1", "reagent no.": 2, "G2 robust z-score": -0.195, "G2 cells, % of GMNN control": 1.59, "activity call": "inactive"}
{"gene knocked down": "LLGL1", "reagent no.": 3, "G2 robust z-score": -0.271, "G2 cells, % of GMNN control": 1.06, "activity call": "inactive"}
{"gene knocked down": "EPOR", "reagent no.": 1, "G2 robust z-score": 1.29, "G2 cells, % of GMNN control": 12, "activity call": "inactive"}
{"gene knocked down": "EPOR", "reagent no.": 2, "G2 robust z-score": 0.532, "G2 cells, % of GMNN control": 6.71, "activity call": "inactive"}
{"gene knocked down": "EPOR", "reagent no.": 3, "G2 robust z-score": 0.324, "G2 cells, % of GMNN control": 5.25, "activity call": "inactive"}

Not a retest: an excerpt of the list.
{"gene knocked down": "IDO2", "reagent no.": 3, "G2 robust z-score": -0.399, "G2 cells, % of GMNN control": 0.157, "activity call": "inactive"}
{"gene knocked down": "MRPL22", "reagent no.": 1, "G2 robust z-score": -0.905, "G2 cells, % of GMNN control": -3.4, "activity call": "inactive"}
{"gene knocked down": "MRPL22", "reagent no.": 2, "G2 robust z-score": -0.282, "G2 cells, % of GMNN control": 0.984, "activity call": "inactive"}
